From the supplement of paper PMC7666118 come the findings set out here.

The chains behind the UniProt entries cited, without tags or fusion partners. Where a name states a change or a piece, a line headed by the entry shows the natural chain unless it says otherwise.
UniProt A6NED2: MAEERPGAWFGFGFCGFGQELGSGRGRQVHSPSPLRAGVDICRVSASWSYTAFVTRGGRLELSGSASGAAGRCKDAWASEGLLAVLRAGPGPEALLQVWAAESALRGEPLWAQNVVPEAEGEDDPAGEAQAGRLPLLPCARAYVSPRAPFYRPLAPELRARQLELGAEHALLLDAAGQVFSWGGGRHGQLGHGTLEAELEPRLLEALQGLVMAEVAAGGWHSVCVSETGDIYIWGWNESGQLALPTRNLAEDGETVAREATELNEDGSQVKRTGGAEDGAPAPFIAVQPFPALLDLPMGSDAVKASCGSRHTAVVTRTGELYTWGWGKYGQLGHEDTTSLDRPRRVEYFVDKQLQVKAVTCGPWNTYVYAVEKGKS
UniProt Q4J6C6, whole entry: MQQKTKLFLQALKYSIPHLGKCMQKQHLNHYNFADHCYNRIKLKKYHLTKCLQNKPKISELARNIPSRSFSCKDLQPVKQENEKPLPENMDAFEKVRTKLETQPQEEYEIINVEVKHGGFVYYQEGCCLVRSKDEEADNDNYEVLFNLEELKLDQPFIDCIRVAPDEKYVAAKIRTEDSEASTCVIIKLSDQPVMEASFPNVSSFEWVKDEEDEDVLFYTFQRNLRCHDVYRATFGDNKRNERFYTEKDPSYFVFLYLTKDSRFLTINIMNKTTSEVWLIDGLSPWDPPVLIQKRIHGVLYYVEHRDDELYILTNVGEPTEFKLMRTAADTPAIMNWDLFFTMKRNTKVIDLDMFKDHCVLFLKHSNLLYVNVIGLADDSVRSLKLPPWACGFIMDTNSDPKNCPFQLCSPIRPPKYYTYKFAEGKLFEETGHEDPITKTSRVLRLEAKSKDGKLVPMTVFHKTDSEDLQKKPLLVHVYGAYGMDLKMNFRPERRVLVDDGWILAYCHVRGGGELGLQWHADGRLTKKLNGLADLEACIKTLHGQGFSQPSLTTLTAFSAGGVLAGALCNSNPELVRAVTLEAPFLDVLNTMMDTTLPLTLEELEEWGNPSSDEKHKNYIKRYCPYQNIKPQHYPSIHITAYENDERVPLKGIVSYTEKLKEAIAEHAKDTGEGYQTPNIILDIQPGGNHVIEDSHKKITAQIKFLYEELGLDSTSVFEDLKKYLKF
UniProt Q9BQ04: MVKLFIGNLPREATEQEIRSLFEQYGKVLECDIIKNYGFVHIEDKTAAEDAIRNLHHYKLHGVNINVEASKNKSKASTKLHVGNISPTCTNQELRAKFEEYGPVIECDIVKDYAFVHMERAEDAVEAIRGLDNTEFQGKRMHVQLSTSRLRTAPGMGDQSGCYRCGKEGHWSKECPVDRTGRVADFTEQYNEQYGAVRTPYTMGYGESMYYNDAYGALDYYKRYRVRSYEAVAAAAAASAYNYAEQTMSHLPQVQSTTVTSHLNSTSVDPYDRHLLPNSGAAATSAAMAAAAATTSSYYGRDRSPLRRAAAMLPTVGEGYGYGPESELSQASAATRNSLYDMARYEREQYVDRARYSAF
UniProt O60216: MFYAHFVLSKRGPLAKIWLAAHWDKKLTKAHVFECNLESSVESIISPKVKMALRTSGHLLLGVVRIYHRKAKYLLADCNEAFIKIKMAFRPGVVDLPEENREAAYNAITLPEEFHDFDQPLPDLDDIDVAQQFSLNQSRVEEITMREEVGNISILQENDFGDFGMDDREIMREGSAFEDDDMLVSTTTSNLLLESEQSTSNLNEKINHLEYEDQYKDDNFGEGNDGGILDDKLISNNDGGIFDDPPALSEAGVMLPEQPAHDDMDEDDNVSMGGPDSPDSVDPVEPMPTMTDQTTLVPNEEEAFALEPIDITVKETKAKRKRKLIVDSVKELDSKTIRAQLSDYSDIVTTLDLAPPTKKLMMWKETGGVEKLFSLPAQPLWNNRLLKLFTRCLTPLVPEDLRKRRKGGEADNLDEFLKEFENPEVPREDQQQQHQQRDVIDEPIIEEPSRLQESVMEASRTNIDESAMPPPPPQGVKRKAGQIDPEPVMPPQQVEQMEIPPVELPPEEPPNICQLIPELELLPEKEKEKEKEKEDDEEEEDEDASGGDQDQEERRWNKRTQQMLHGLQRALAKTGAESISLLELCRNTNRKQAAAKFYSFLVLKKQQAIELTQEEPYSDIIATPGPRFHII
UniProt Q86TP1: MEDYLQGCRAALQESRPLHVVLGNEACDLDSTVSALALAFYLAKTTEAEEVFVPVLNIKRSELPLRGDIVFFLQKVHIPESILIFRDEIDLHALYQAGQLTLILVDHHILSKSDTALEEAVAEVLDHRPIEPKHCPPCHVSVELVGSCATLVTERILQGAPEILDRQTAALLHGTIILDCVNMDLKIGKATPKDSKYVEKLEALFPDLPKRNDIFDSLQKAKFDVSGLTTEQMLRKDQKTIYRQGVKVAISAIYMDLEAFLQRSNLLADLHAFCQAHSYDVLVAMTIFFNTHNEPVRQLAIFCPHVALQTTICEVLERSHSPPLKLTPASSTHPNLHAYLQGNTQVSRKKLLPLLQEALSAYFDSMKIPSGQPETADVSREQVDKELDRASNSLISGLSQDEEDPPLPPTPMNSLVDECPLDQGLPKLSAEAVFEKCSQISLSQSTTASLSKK
UniProt P28070, whole entry: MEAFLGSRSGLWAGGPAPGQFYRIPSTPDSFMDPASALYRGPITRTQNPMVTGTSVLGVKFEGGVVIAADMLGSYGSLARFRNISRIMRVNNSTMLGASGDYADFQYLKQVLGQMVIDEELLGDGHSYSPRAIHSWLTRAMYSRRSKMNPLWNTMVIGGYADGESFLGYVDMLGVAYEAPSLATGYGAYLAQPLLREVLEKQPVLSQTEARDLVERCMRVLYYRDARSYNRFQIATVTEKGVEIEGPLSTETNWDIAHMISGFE
UniProt P55036: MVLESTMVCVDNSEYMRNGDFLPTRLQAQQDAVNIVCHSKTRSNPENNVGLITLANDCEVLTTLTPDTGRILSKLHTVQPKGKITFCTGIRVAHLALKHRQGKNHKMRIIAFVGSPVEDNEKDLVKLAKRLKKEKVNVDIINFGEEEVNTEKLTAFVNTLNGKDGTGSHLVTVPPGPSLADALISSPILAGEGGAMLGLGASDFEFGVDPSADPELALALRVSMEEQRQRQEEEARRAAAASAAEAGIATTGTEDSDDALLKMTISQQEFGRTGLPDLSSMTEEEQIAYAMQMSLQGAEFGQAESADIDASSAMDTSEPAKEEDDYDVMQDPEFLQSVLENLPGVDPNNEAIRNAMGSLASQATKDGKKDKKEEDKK
UniProt Q96LA8, whole entry, looked up: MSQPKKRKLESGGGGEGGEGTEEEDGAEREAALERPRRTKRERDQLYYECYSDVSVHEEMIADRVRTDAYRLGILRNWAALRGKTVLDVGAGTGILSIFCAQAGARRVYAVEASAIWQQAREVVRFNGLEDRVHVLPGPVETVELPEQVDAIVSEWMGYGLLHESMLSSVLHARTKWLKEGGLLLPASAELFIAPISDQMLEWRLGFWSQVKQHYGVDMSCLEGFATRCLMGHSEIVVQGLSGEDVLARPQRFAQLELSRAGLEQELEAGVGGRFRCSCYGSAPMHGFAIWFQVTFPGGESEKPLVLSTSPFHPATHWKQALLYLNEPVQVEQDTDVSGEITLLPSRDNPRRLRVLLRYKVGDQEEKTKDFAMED
UniProt Q9BWF3: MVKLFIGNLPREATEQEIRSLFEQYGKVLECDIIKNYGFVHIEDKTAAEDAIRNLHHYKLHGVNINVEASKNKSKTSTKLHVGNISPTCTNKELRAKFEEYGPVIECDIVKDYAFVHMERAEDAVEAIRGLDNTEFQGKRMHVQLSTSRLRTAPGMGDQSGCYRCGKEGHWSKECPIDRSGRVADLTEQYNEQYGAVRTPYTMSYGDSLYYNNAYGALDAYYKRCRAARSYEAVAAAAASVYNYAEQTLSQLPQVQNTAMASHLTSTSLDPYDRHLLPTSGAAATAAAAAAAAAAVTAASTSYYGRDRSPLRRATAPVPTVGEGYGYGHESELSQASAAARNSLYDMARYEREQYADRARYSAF
UniProt P20936: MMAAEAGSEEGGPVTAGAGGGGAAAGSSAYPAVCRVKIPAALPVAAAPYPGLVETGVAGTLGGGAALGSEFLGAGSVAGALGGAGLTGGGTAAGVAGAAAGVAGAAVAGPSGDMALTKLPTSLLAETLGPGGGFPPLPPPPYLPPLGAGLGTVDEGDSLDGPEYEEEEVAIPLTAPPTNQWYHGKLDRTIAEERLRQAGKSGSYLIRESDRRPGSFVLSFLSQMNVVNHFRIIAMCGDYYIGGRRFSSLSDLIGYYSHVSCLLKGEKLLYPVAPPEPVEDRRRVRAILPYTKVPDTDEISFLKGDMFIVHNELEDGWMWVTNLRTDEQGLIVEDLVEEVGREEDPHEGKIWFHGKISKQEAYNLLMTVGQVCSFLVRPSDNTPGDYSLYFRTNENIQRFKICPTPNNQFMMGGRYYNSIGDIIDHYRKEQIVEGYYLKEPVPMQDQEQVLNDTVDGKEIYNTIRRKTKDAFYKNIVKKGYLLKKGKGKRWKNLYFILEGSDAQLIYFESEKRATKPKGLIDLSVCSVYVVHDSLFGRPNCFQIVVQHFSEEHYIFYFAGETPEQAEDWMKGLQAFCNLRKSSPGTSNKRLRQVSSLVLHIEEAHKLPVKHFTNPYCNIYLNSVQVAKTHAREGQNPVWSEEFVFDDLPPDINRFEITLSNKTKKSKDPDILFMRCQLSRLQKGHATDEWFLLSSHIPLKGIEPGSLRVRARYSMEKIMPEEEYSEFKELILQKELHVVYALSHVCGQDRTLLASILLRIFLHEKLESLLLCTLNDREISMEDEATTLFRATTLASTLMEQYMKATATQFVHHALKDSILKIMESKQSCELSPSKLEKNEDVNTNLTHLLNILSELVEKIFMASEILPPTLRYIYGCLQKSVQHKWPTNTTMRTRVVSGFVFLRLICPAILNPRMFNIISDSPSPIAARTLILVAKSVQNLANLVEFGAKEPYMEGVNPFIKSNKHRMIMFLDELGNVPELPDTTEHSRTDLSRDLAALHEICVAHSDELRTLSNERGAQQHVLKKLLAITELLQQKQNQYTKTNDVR
UniProt Q15276: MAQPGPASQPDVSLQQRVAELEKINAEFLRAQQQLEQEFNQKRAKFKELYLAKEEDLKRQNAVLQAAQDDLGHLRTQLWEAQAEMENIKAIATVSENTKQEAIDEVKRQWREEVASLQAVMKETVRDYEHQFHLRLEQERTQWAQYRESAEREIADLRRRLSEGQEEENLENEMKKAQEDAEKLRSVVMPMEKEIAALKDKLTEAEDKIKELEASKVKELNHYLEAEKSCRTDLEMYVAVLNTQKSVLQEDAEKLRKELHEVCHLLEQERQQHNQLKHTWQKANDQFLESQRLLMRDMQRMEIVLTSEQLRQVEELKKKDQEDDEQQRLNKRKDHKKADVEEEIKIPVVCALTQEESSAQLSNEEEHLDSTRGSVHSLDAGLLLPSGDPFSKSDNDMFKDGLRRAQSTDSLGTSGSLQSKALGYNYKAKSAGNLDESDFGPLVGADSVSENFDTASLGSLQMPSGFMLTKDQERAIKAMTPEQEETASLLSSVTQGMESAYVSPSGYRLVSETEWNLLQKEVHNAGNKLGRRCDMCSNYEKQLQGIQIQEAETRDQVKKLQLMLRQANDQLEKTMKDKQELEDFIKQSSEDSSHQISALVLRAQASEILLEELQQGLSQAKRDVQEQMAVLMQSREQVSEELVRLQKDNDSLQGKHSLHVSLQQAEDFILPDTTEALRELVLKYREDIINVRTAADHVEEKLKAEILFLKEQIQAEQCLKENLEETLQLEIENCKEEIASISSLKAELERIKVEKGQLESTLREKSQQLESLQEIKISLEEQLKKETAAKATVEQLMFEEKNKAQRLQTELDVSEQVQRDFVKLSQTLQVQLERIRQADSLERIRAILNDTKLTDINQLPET

Some of the results follow.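 The calls were made as follows: active = dose-dependent thermal stabilisation significant by F-test of dose-response against flat model at 10% FDR; inactive = not significant.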

Compound in the assay: Nc1nc2c(ncn2[C@@H]2O[C@H](COP(=O)(O)OP(=O)(O)OP(=O)(O)O)[C@@H](O)[C@H]2O)c(=O)[nH]1
The assay is described as follows: dose-dependent thermal stabilisation call (2D-TPP, DLPTP, 10% FDR) (binary (1 = stabilised)); higher = stabilised by the compound. Particulars: system: Jurkat gel-filtered lysate; concentration range 1-500 µM. Here is the method: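 2D thermal proteome profiling in gel-filtered Jurkat E6.1 lysate (2 mg/ml) treated with NaGTP (0, 1, 10, 100, 500 uM) for 10 min at room temperature, then heated 3 min at one of 12 temperatures (42-63.9 C). Soluble protein was quantified by TMT10 MS. The value is the DLPTP call of the paper: dose-dependent thermal stabilisation over all temperatures at 10% FDR (F-test of a dose-response against a flat model); one experiment, one call per tested protein.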
PYROXD1 (UniProt Q8WU10): the “dose-dependent thermal stabilisation call” value is inactive: 0.
Consider RAB11B (UniProt Q15907), for which the “dose-dependent thermal stabilisation call” value was active: 1.
In the case of PRKCA (UniProt P17252), the “dose-dependent thermal stabilisation call” value is active: 1.
The figure for RCCD1 (UniProt A6NED2) is inactive: 0; for PRKACA (UniProt P17612) it is inactive: 0.
Consider PRRC2B (UniProt Q5JSZ5), for which the “dose-dependent thermal stabilisation call” value was inactive: 0.
For the target PREPL (UniProt Q4J6C6), the “dose-dependent thermal stabilisation call” value is inactive: 0.
As for RAC2 (UniProt P15153), the “dose-dependent thermal stabilisation call” value was active: 1.
Consider PSMB5 (UniProt P28074), for which the “dose-dependent thermal stabilisation call” value is inactive: 0.
Take RAD51 (UniProt Q06609): the “dose-dependent thermal stabilisation call” value is active: 1.
Take RBM4B (UniProt Q9BQ04): the “dose-dependent thermal stabilisation call” value is active: 1.
With PSMB9 (UniProt P28065), the “dose-dependent thermal stabilisation call” value is inactive: 0.
As to PRKAA1 (UniProt Q13131), the “dose-dependent thermal stabilisation call” value was inactive: 0.
Regarding PRRC2A (UniProt P48634), the “dose-dependent thermal stabilisation call” value was inactive: 0.
Regarding RAD21 (UniProt O60216), the “dose-dependent thermal stabilisation call” value is inactive: 0.
RAD50 (UniProt Q92878): the “dose-dependent thermal stabilisation call” value is active: 1.
PRKCH (UniProt P24723): the “dose-dependent thermal stabilisation call” value is active: 1.
As for PRUNE1 (UniProt Q86TP1), the “dose-dependent thermal stabilisation call” value is active: 1.
The figure for PUF60 (UniProt Q9UHX1) is inactive: 0; for PXK (UniProt Q7Z7A4) it is active: 1; for PSMB4 (UniProt P28070) it is inactive: 0.
RAB5B (UniProt P61020): the “dose-dependent thermal stabilisation call” value was inactive: 0.
On to PRKCSH (UniProt P14314), for which the “dose-dependent thermal stabilisation call” value is inactive: 0.
In the case of PSMD1 (UniProt Q99460), the “dose-dependent thermal stabilisation call” value is active: 1.
The figure for PRPF3 (UniProt O43395) is inactive: 0.
To PSMD4 (UniProt P55036) belongs inactive: 0; to PSPC1 (UniProt Q8WXF1), active: 1.
Turning to PTGES3 (UniProt Q15185), the “dose-dependent thermal stabilisation call” value was inactive: 0.
Turning to PRMT6 (UniProt Q96LA8), the “dose-dependent thermal stabilisation call” value is inactive: 0.
To PTPN11 (UniProt Q06124) belongs inactive: 0; to PYGB (UniProt P11216), inactive: 0.
With RBM4 (UniProt Q9BWF3), the “dose-dependent thermal stabilisation call” value is active: 1.
Regarding RAD23B (UniProt P54727), the “dose-dependent thermal stabilisation call” value is inactive: 0.
In the case of PUS7L (UniProt Q9H0K6), the “dose-dependent thermal stabilisation call” value is inactive: 0.
For PRPF8 (UniProt Q6P2Q9), the “dose-dependent thermal stabilisation call” value was active: 1.
Take RABEPK (UniProt Q7Z6M1): the “dose-dependent thermal stabilisation call” value is inactive: 0.
As to RBM12 (UniProt Q9NTZ6), the “dose-dependent thermal stabilisation call” value is inactive: 0.
The figure for RASA1 (UniProt P20936) is inactive: 0; for RABEP1 (UniProt Q15276) it is inactive: 0.
Take PRPF39 (UniProt Q86UA1): the “dose-dependent thermal stabilisation call” value was inactive: 0.
